According to the supplement of paper PMC10849652:
The other results are listed elsewhere or left out.

Chains of the proteins cited; added tags and fusions are not shown. Lines headed by an entry give the natural chain unless they say otherwise; changes in a name come on top.
UniProt Q8N5I4: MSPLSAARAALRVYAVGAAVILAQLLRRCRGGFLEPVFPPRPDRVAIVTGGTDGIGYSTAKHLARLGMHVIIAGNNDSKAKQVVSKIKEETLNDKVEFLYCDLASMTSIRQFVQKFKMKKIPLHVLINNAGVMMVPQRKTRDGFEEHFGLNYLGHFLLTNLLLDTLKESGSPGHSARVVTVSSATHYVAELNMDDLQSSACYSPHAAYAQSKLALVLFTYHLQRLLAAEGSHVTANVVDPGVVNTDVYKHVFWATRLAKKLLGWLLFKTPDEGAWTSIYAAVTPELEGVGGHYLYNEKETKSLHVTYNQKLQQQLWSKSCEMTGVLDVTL
UniProt O94760: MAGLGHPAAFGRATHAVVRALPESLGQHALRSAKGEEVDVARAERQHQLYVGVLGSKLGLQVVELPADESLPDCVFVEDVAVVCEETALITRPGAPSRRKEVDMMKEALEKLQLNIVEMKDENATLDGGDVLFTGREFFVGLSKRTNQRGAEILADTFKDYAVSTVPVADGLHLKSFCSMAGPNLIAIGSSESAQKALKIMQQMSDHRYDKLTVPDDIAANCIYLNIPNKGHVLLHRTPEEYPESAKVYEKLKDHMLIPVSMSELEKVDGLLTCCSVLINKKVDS
UniProt Q14147: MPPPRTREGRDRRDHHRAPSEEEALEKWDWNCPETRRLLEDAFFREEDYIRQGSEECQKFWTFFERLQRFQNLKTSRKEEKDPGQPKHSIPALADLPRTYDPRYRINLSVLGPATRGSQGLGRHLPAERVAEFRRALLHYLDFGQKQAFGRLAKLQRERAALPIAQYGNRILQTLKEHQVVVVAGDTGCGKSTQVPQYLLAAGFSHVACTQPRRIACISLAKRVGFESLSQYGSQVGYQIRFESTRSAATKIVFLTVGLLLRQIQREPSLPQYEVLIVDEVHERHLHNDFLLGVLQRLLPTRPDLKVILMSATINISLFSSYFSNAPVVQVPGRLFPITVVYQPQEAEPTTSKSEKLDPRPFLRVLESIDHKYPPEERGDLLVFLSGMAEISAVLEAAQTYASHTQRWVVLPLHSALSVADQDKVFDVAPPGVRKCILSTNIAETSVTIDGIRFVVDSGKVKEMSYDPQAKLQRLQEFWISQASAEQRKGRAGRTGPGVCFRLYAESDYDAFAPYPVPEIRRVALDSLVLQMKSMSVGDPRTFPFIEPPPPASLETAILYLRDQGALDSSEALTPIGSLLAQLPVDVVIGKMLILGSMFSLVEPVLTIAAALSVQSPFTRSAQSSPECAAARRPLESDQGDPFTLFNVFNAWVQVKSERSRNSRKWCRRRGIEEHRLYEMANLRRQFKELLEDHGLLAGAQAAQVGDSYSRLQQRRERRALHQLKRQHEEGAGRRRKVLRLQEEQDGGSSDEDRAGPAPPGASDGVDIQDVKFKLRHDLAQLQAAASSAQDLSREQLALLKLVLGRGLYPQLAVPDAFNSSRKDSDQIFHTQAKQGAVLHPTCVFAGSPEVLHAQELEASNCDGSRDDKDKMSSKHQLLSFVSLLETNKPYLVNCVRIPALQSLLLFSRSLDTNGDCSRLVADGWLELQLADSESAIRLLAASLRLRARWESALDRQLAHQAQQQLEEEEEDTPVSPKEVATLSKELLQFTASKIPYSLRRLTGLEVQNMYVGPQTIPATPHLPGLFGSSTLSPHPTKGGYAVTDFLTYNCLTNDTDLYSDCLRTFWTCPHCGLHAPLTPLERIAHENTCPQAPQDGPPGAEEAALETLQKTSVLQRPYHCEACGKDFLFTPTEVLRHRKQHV
UniProt Q6ICB0: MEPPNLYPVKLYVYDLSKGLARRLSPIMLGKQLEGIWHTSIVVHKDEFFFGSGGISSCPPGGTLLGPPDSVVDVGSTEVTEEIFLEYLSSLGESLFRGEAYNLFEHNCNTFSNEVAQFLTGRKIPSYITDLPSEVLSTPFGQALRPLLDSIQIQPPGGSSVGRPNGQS
UniProt Q6ZN54: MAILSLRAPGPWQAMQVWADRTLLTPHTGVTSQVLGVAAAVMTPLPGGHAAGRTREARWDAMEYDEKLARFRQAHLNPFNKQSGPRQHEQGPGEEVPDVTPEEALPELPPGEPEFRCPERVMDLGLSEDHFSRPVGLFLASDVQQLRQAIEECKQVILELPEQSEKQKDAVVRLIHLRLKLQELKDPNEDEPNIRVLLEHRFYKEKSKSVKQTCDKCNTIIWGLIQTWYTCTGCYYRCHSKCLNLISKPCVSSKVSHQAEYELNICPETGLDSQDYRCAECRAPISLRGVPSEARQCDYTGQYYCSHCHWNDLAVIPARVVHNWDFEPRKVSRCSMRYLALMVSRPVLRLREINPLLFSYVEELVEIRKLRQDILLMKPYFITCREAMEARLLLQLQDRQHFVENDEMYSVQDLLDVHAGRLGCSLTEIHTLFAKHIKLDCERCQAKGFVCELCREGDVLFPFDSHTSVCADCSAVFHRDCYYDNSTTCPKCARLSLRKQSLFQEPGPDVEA
UniProt Q9UHL0: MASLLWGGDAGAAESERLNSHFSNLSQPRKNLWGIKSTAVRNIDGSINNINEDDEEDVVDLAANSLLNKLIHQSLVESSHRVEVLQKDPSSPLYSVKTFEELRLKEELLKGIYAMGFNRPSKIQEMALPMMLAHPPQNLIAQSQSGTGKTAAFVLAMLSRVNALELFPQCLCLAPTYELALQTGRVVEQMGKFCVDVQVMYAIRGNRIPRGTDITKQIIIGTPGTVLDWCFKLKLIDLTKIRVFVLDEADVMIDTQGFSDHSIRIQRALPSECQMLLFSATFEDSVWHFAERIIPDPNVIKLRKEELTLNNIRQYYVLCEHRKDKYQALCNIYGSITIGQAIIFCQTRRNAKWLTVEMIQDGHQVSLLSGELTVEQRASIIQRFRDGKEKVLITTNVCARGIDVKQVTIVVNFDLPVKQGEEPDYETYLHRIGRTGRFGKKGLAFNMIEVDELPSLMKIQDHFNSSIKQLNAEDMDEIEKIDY
UniProt Q9BSY9: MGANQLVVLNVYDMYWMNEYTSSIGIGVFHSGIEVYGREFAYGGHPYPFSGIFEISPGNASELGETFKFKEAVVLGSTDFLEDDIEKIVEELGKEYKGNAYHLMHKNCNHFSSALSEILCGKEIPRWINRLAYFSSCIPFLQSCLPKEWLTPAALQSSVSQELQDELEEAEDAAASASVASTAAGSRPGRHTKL
UniProt P51530: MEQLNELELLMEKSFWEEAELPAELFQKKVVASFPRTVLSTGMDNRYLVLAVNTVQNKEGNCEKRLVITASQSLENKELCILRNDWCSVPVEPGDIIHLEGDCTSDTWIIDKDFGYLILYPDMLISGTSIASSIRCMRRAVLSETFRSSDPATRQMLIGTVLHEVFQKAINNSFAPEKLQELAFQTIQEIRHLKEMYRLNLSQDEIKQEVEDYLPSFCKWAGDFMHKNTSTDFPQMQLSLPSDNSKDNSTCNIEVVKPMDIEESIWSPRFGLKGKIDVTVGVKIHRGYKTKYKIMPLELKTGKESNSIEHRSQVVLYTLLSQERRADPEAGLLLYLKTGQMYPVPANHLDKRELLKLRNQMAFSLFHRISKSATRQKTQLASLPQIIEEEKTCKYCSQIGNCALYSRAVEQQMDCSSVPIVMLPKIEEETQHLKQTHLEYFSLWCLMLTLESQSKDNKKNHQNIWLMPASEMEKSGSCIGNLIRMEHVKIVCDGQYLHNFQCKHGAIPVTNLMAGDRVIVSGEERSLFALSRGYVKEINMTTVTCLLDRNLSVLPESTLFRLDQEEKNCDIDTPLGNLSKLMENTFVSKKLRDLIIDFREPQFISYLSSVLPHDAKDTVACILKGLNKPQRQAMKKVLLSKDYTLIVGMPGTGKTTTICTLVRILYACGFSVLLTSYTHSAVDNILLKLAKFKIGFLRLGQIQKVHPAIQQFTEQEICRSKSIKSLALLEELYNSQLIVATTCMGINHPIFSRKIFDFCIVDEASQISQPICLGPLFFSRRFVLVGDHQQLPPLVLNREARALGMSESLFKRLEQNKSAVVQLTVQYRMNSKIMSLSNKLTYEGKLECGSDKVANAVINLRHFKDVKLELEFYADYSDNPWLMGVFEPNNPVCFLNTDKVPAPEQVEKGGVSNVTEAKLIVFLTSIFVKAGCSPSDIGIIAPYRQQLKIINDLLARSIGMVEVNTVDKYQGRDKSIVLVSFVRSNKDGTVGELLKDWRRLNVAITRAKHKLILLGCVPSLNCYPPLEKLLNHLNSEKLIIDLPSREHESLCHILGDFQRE
UniProt Q7L5Y6, whole entry, looked up: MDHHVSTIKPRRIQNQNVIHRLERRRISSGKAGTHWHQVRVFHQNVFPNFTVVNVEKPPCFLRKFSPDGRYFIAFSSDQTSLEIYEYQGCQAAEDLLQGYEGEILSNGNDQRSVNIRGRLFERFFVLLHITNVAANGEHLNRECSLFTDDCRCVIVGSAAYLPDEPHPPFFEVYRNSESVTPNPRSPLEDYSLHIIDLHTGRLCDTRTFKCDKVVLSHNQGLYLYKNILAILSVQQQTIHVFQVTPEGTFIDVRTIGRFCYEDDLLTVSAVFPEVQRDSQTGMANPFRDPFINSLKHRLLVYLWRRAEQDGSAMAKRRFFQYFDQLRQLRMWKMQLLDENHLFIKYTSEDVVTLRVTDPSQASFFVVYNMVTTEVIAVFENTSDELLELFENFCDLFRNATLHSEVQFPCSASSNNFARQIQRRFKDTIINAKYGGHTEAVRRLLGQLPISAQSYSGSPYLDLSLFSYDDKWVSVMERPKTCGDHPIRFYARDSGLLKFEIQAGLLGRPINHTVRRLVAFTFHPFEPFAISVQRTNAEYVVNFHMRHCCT
UniProt Q68CQ4: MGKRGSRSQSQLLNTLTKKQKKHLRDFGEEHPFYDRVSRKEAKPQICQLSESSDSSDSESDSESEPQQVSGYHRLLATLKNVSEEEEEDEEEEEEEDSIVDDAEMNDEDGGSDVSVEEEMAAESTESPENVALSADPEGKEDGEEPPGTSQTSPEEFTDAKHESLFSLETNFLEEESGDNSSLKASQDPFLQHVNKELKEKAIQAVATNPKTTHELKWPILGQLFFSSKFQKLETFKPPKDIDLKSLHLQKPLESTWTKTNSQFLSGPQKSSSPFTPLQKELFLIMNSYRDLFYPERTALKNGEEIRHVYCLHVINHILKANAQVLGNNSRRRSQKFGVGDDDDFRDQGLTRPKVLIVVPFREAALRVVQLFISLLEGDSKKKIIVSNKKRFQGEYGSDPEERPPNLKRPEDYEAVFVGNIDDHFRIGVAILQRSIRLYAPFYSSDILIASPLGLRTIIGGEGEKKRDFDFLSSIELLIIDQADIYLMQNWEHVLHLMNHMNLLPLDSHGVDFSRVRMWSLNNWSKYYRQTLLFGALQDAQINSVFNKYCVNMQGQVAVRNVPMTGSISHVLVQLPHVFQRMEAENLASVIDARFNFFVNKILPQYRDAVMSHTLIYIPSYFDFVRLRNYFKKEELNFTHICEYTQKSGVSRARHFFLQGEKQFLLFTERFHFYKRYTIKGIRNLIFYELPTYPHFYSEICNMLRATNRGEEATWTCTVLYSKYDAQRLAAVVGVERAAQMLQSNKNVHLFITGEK
UniProt Q9Y2R4: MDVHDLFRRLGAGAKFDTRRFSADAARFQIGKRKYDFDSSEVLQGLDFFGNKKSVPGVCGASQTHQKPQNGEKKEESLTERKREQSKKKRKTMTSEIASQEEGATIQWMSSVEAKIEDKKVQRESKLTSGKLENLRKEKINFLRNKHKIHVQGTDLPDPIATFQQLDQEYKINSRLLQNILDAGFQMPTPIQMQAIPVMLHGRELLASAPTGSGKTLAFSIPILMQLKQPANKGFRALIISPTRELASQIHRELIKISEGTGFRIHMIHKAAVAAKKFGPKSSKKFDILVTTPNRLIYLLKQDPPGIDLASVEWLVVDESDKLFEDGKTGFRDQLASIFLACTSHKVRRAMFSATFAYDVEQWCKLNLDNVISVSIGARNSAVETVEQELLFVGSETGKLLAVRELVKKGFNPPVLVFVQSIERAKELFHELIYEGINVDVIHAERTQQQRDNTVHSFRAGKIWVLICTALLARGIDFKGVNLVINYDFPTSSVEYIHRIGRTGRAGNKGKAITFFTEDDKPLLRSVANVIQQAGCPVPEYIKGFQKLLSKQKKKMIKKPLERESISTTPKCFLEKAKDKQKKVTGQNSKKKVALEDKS
UniProt O00273: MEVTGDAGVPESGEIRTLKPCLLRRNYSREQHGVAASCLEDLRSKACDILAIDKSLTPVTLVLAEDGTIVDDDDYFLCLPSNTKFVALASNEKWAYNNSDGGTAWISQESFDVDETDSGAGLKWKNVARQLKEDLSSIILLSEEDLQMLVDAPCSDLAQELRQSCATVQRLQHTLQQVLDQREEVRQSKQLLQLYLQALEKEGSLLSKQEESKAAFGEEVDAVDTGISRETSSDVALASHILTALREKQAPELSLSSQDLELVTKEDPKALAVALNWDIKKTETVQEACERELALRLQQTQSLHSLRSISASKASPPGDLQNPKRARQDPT

Experiments:
Assay in all cases: log2 fold change, soluble protein after heating vs DMSO (PISA); higher = thermal stabilisation; K562 cells, 10 uM, 30 min; active = over 0.2 and 3.5 SD of the protein, either way, in both replicates (recomputed)
[1] = compound: CN1CCN(c2nc(C3=C(c4c[nH]c5ccccc45)C(=O)NC3=O)c3ccccc3n2)CC1 [sotrastaurin]
In short: (§1)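 Quantification of soluble protein used TMTpro 16plex LC-MS/MS, with channel sums equalised. Samples were the supernatant after 21,000xg for 90 min of pooled aliquots from K562 cells (2×10^6 cells/mL) treated with 10 μM compound for 30 min, heated for 3 min over 48°C-58°C, and extracted in PBS with 0.5% NP-40 at 4°C. Values, from duplicates, describe thermal stability against control samples on a log2 fold-change scale.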

[2] = compound: CN1CCc2c(c3ccccc3n2Cc2ccc(C(=O)NO)cc2)C1 [Tubastatin A]
In short: as §1

[3] = compound: CNC(=O)c1ccc(Nc2ncc(C(F)(F)F)c(NCc3nccnc3N(C)S(C)(=O)=O)n2)cc1 [defactinib]
In short: as §1

[4] = compound: CNCc1ccc(-c2[nH]c3cc(F)cc4c3c2CCNC4=O)cc1 [rucaparib]
In short: as §1

[5] = compound: COC(=O)N[C@@H](C)CNc1nccc(-c2cn(C(C)C)nc2-c2cc(Cl)cc(NS(C)(=O)=O)c2F)n1 [encorafenib]
In short: as §1

[6] = compound: COC(=O)[C@H](CCSC)NC(=O)C1=C(C=C(C=C1)NC[C@H](CS)N)C2=CC=CC=C2
In short: as §1

[7] = compound: CON(C)C(=O)N1N=C(c2cc(F)ccc2F)S[C@@]1(CCCN)c1ccccc1 [filanesib]
In short: as §1

[8] = compound: CS(=O)(=O)N1CCN(Cc2cc3nc(-c4cccc5[nH]ncc45)nc(N4CCOCC4)c3s2)CC1 [pictilisib]
In short: as §1

[9] = compound: CN1CCN(CCOc2cc(OC3CCOCC3)c3c(Nc4c(Cl)ccc5c4OCO5)ncnc3c2)CC1 [saracatinib]
In short: as §1

[10] = compound: CNc1nc(-c2ccc3c(N)n[nH]c3c2)cc(N2C[C@@H](C(=O)NC3CCCCC3)CC[C@H]2C)n1
In short: as §1

[11] = compound: COc1cc(Nc2ncc3c(n2)-c2ccc(Cl)cc2C(c2c(F)cccc2OC)=NC3)ccc1C(=O)O [alisertib]
In short: as §1

[12] = compound: COc1cc2nc(-c3cc(F)ccc3O)nc(N[C@@H]3CNC[C@H]3C(C)(C)O)c2cc1OC
In short: as §1

[13] = compound: COc1cc2ncnc(Nc3ccc(F)c(Cl)c3)c2cc1OCCCN1CCOCC1 [gefitinib]
In short: as §1

[14] = compound: COc1cccc2cc(-c3nc([C@H]4CC[C@H](C(=O)O)CC4)n4ncnc(N)c34)[nH]c12
In short: as §1

[15] = compound: CS(=O)(=O)CCNCc1ccc(-c2ccc3ncnc(Nc4ccc(OCc5cccc(F)c5)c(Cl)c4)c3c2)o1 [lapatinib]
In short: as §1

[16] = compound: COC1=CC=C(C=C1)CN2C=CC3=C2C=C(C=C3)C(=O)NO
In short: as §1

[17] = compound: CN1CC[C@H](c2c(O)cc(O)c3c(=O)cc(-c4ccccc4Cl)oc23)[C@H](O)C1 [alvocidib]
In short: as §1

[18] = compound: CNC(=O)C1=CC=CC=C1NC2=NC(=NC=C2Cl)NC3=C(C=C(C=C3)N4CCOCC4)OC
In short: as §1

[19] = compound: CO[C@H]1C[C@@H]2CC[C@@H](C)[C@@](O)(O2)C(=O)C(=O)N2CCCC[C@H]2C(=O)O[C@H]([C@H](C)C[C@@H]2CC[C@H](n3cnnn3)[C@H](OC)C2)CC(=O)[C@H](C)/C=C(\C)[C@@H](O)[C@@H](OC)C(=O)[C@H](C)C[C@H](C)/C=C/C=C/C=C/1C [zotarolimus]
In short: as §1

[20] = compound: COc1cc(C(=O)O)ccc1NC(=O)[C@@H]1N[C@@H](CC(C)(C)C)[C@](C#N)(c2ccc(Cl)cc2F)[C@H]1c1cccc(Cl)c1F [idasanutlin]
In short: as §1

Measured: log2 fold change

DDX55 (UniProt Q8NHQ9)
inactive: [1] -0.339 | [2] 0.157 | [3] 0.181 | [4] 0.117 | [5] 0.003 | [6] -0.014 | [7] 0.184

DKK4 (UniProt Q9UBT3)
inactive: [8] -1.82

DIRAS1 (UniProt O95057)
inactive: [2] 0.115

DECR1 (UniProt E5RJD2)
inactive: [9] -0.048 | [10] -0.067 | [11] -0.065 | [12] 0.113 | [13] 0.094 | [14] 0.193 | [15] -0.071 | [8] 0.123

DHPS (UniProt M0R1T2)
inactive: [1] -0.06 | [7] -0.057

DMTN isoform 2 (UniProt Q08495)
inactive: [2] 0.149 | [16] -0.006 | [13] -0.168

DHRSX (UniProt Q8N5I4)
inactive: [17] -0.048 | [18] -0.054 | [3] -0.052 | [6] -0.017 | [16] 0.024 | [19] 0.02 | [20] 0.018 | [11] 0.002 | [13] 0.065 | [14] 0.114 | [8] -0.027

DHTKD1 (UniProt Q96HY7)
inactive: [2] 0.103 | [18] -0.166 | [4] -0.198 | [5] 0.196 | [16] -0.06

DERPC (UniProt P0CG12)
inactive: [9] -0.168 | [18] 0.08 | [3] -0.153 | [4] -0.001 | [10] -0.071 | [5] -0.109 | [6] 0.063 | [16] -0.016 | [11] 0.021 | [13] 0.099 | [14] 0.086 | [8] -0.107

DDAH1 (UniProt O94760)
inactive: [9] -0.041 | [17] -0.012 | [2] -0.073 | [18] -0.027 | [3] 0.002 | [4] -0.134 | [10] 0.003 | [5] 0.024 | [6] 0.009 | [19] -0.024 | [20] -0.093 | [11] -0.007 | [12] -0.025 | [13] -0.045 | [14] 0.065 | [15] -0.01 | [8] -0.027

DHX34 (UniProt Q14147)
inactive: [9] -0.12 | [2] -0.105 | [18] -0.216 | [4] -0.076 | [10] -0.064 | [5] -0.004 | [16] -0.017

DESI1 (UniProt Q6ICB0)
inactive: [9] 0.012 | [17] 0.029 | [2] 0.061 | [18] 0.068 | [3] 0.195 | [4] -0.167 | [10] 0.042 | [5] 0.118 | [6] 0.381 | [19] 0.166 | [20] 0.213 | [12] 0.046 | [15] -0.002

DDX11L8 (UniProt A8MPP1)
inactive: [9] 0.026 | [17] -0.066 | [10] 0.089 | [19] 0.136 | [12] 0.018 | [15] 0.03

DDX28 (UniProt Q9NUL7)
inactive: [17] 0.165 | [19] -0.104

DDX46, A0A0C4DG89
inactive: [11] -0.083 | [13] 0.261 | [14] 0.032

DDR1 isoform 5 (UniProt Q08345)
inactive: [17] -0.115 | [18] -0.282 | [3] -0.245 | [6] -0.069 | [16] -0.047 | [19] 0.115 | [8] 0.24

DEF8 (UniProt Q6ZN54)
inactive: [18] 0.167 | [3] -0.023 | [6] 0.042 | [20] -0.04 | [12] -0.146 | [15] 0.174

DDX25 (UniProt Q9UHL0)
inactive: [9] 0.123 | [17] -0.127 | [2] 0.051 | [3] -0.301 | [4] -0.092 | [10] 0.135 | [5] 0.016 | [6] 0.008 | [16] 0.037 | [19] 0.402 | [20] -0.041 | [11] -0.327 | [12] -0.12 | [13] -0.076 | [14] -0.266 | [15] 0.244

DDX39B (UniProt H0Y400)
inactive: [18] 0.086

DESI2 (UniProt Q9BSY9)
inactive: [1] -0.051 | [2] -0.038 | [18] -0.057 | [4] -0.129 | [5] 0.026 | [16] 0.018 | [7] 0.061 | [12] -0.11 | [13] 0.054 | [15] -0.043

DLK1 (UniProt P80370)
inactive: [9] 0.021 | [3] -0.08 | [4] -0.023 | [10] -0.09 | [5] -0.032 | [6] 0.159 | [16] -0.021 | [19] -0.095

DNA2 (UniProt P51530)
inactive: [1] 0.437 | [3] -0.183 | [4] 0.036 | [5] -0.113 | [6] -0.04 | [16] -0.061 | [7] -0.103 | [12] 0.192 | [13] 0.26 | [15] -0.011 | [8] 0.056

DET1 isoform 2 (UniProt Q7L5Y6)
inactive: [17] 0.032 | [16] -0.076 | [19] 0.01 | [11] 0.001 | [12] -0.165 | [14] -0.008 | [15] 0.044

DGKE (UniProt P52429)
inactive: [1] -0.136 | [17] 0.079 | [2] -0.062 | [18] 0.164 | [16] -0.049 | [7] -0.126 | [19] 0.121 | [20] -0.017 | [11] -0.252 | [12] -0.129 | [13] -0.032 | [14] 0.11 | [15] -0.301

DMBT1 isoform 6 (UniProt Q9UGM3)
inactive: [1] -0.007 | [7] -0.074 | [11] 1.09 | [13] 0.862 | [14] -0.14

DEPDC5 (UniProt O75140)
inactive: [9] -0.107 | [10] 0.069 | [16] -0.119

DEF6 (UniProt Q9H4E7)
inactive: [17] 0.223 | [2] -0.004 | [16] 0.027 | [19] -0.305 | [11] -0.054 | [14] -0.103

DLC1 (UniProt Q96QB1)
inactive: [3] -0.018 | [4] -0.055 | [5] -0.168 | [6] -0.023 | [16] -0.619 | [11] -0.159 | [13] 0 | [14] 0.038 | [8] 0.259

DHX32 (UniProt Q7L7V1)
inactive: [2] -0.126 | [4] 0.331 | [5] -0.225

DENND1C (UniProt Q8IV53)
inactive: [1] -0.075 | [18] -0.154 | [3] -0.018 | [6] 0.127 | [7] -0.088

DDB1 isoform 2 (UniProt Q16531)
inactive: [1] 0.053 | [4] -0.067 | [5] -0.041 | [7] 0.077 | [8] 0.094

DHX35 (UniProt Q9H5Z1)
inactive: [13] 0.012

DDX10 (UniProt Q13206)
inactive: [9] -0.136 | [18] -0.103 | [10] -0.247

DENND1A isoform 6 (UniProt Q8TEH3)
inactive: [2] -0.018 | [3] -0.081 | [6] -0.024 | [16] 0.154 | [12] -0.18 | [15] 0.06

Reprinted from the entries so far (two entries):
DHPS (UniProt M0R1T2)
inactive: [1] -0.06 | [7] -0.057

DMTN isoform 2 (UniProt Q08495)
inactive: [2] 0.149 | [16] -0.006 | [13] -0.168

(continued)

DIEXF (UniProt Q68CQ4)
inactive: [9] -0.083 | [17] -0.027 | [3] -0.252 | [10] 0.023 | [6] 0.038 | [19] 0.091

DMKN (UniProt Q6E0U4)
inactive: [2] -0.377 | [18] 0.242 | [3] -0.117 | [4] 0.225 | [5] -0.313 | [6] -0.012 | [11] 0.815 | [12] 0.133 | [13] 0.112 | [14] -0.196 | [15] 0.044

DHX37 (UniProt Q8IY37)
inactive: [18] 0.189 | [20] 0.017

DEAF1 (UniProt O75398)
inactive: [9] -0.339 | [10] -0.001

DDX52 (UniProt Q9Y2R4)
inactive: [9] -0.263 | [17] 0.261 | [10] -0.138 | [16] -0.127 | [19] -0.035

DFFA isoform 2 (UniProt O00273)
inactive: [9] -0.149 | [18] -0.054 | [10] 0.034 | [16] 0.079 | [11] -0.047 | [13] -0.082 | [14] 0.139
